Measured values: the supplement of paper PMC11732987, “Enantioselective OTUD7B fragment discovery through chemoproteomics screening and high-throughput optimisation” (Communications Chemistry, 2025)
This is one part of the list. The data scatter; read single values as rough.

Protein sequences, listed by entry. Tags and fused reporters are not part of them. Lines headed by an entry give the natural chain unless they say otherwise; changes in a name come on top.
UniProt Q8IYH5: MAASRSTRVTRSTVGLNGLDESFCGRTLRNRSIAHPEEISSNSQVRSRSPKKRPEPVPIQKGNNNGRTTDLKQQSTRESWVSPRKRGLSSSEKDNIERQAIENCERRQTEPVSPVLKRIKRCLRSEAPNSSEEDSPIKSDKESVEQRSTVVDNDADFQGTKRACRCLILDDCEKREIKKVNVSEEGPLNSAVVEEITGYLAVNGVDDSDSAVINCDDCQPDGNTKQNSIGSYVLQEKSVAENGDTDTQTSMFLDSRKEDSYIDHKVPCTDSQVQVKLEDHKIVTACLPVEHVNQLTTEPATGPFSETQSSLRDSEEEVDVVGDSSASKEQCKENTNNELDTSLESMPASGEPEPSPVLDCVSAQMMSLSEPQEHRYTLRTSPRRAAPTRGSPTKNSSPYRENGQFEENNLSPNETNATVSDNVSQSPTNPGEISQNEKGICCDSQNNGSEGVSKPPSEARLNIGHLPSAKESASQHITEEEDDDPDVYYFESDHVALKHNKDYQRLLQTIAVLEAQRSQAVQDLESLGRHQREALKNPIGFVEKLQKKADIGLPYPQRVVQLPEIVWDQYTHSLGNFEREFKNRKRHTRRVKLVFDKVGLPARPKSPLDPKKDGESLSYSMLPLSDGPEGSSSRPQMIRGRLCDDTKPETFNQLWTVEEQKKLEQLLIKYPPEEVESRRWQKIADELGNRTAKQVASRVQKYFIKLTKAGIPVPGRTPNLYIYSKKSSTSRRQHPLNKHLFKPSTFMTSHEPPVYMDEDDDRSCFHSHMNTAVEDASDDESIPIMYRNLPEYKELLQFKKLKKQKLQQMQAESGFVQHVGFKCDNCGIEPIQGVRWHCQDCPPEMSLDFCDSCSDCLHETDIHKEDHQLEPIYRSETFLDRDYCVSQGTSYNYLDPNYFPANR
UniProt Q92618: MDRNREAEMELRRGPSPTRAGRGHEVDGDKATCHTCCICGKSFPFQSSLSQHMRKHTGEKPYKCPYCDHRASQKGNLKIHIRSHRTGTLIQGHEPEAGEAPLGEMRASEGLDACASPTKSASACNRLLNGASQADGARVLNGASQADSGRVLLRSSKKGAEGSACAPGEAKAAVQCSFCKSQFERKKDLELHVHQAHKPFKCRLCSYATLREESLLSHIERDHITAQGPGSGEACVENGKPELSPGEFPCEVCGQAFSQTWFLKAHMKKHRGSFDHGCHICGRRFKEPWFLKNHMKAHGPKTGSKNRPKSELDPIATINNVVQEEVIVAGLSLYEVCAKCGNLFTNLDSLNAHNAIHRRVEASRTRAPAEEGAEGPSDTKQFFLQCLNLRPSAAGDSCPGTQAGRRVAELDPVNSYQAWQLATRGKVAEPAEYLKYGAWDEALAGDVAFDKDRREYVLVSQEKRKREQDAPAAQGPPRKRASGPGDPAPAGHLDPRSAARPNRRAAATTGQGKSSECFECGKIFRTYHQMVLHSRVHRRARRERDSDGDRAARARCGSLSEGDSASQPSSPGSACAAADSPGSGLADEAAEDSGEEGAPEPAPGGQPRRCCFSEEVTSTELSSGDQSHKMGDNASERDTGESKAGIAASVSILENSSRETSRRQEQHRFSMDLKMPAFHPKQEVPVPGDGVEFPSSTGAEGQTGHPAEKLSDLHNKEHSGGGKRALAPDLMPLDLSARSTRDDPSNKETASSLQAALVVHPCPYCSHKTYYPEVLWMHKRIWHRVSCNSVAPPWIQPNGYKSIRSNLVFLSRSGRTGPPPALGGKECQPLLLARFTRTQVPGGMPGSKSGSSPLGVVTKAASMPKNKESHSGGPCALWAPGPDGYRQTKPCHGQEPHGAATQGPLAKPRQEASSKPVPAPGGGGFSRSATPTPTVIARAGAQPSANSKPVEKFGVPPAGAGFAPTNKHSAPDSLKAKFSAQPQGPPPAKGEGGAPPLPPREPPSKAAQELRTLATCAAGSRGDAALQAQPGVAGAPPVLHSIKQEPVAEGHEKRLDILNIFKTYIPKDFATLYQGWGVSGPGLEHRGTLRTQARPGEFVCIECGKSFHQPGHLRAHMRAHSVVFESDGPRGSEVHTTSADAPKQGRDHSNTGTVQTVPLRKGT

Legend:
[1] = compound: ClCC(=O)N[C@@H]1CCCc2ccccc12; assay: log2 mean competition ratio of IA-DTB cysteine labelling (DMSO/compound) (log2 ratio); higher = stronger cysteine engagement by compound; conditions: treatment time: 4 h, cell line lysate: HEK293T
Protocol: (§1)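 IA-DTB competitive cysteine chemoproteomics in HEK293T RIPA lysate. Lysates were treated with compound 29 or 30 at 50 or 200 µM for 4 h, then IA-DTB (500 µM, 1 h), trypsin-digested, NeutrAvidin-enriched and analysed by diaPASEF. Competition ratio = intensity DMSO / intensity compound (n=4 treated, n=64 DMSO); binding: mean log2 CR ≥ 1 and p ≤ 0.05 plus QC filters. Target is the cysteine site.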

[2] = compound: ClCC(=O)N[C@H]1CCCc2ccccc12; assay: as above; conditions: treatment time: 4 h, cell line lysate: HEK293T
Protocol: as §1

For ZFP30 C328, which “log2 mean competition ratio” value ([1]; 50 µM) is on record?
Its value is 0.00844.

And the “log2 mean competition ratio” value ([1]; 200 µM)?
The value was 0.0358.

What about the “log2 mean competition ratio” value ([2]; 50 µM) of the same target?
The value was -0.0241.

What about the “log2 mean competition ratio” value ([2]; 200 µM) of the same target?
Its value is -0.181.

What does the source list for ZZZ3 C24 (UniProt Q8IYH5)?
log2 mean competition ratio ([1]; 50 µM): 0.284; log2 mean competition ratio ([1]; 200 µM): -0.0695; log2 mean competition ratio ([2]; 50 µM): -0.000435; log2 mean competition ratio ([2]; 200 µM): 0.116

Which “log2 mean competition ratio” value ([1]; 50 µM) does the source give for ZNF516 C875 (UniProt Q92618) here?
The value was 0.126.

What about the “log2 mean competition ratio” value ([1]; 200 µM) of the same target?
The value was 0.107.

And the “log2 mean competition ratio” value ([2]; 50 µM)?
The value was 0.256.

What about the “log2 mean competition ratio” value ([2]; 200 µM) of the same target?
The value was 0.0521.
